Data from paper PMC5951673.
No constants are given. Whether binding was seen depends on the method and setting. Binding seen in cells or lysates may run through a third protein. Sequences can lack the tags named with a protein.

Target: T1, CLCA2, stably expressed in HEK293 (cross-linking experiment) (human) (UniProt Q9UQC9)
T1 sequence: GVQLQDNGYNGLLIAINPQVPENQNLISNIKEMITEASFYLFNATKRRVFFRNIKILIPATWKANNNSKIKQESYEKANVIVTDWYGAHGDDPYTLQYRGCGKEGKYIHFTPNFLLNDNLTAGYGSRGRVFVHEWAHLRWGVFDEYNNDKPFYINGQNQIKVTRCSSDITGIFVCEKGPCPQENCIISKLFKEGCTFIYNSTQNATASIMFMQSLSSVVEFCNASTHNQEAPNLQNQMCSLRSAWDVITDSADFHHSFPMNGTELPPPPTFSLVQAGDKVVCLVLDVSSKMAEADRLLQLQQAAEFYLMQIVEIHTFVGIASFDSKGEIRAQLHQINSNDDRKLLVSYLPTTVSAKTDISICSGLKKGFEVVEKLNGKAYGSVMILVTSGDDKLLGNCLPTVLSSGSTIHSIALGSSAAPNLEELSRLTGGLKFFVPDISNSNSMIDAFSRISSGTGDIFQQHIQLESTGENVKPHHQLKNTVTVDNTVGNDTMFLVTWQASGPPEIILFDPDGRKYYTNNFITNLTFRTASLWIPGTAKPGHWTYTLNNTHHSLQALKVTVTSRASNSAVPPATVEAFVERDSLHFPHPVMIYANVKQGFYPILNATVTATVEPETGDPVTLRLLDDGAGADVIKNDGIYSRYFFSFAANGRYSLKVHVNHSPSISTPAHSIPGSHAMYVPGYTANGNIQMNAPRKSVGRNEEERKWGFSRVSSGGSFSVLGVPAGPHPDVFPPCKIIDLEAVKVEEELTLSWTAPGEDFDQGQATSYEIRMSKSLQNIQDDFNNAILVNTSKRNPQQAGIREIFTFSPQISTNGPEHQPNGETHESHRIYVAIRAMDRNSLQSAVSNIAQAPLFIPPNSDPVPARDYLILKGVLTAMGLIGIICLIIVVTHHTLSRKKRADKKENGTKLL
Assay: cross-linking + co-IP; HEK293 stably expressing CLCA2 or vector, transfected with TMEM16A, treated 48h later with DSS (25 min, room temperature), with or without 1 micromolar ionomycin 5min before the cross-linker; immunoprecipitation and immunoblot

B1: TMEM16A-Flag (Anoctamin1), transiently transfected in HEK293 (protein, UniProt Q5XXA6 1-986)
chain: MRVNEKYSTLPAEDRSVHIINICAIEDIGYLPSEGTLLNSLSVDPDAECKYGLYFRDGRRKVDYILVYHHKRPSGNRTLVRRVQHSDTPSGARSVKQDHPLPGKGASLDAGSGEPPMDYHEDDKRFRREEYEGNLLEAGLELERDEDTKIHGVGFVKIHAPWNVLCREAEFLKLKMPTKKMYHINETRGLLKKINSVLQKITDPIQPKVAEHRPQTMKRLSYPFSREKQHLFDLSDKDSFFDSKTRSTIVYEILKRTTCTKAKYSMGITSLLANGVYAAAYPLHDGDYNGENVEFNDRKLLYEEWARYGVFYKYQPIDLVRKYFGEKIGLYFAWLGVYTQMLIPASIVGIIVFLYGCATMDENIPSMEMCDQRHNITMCPLCDKTCSYWKMSSACATARASHLFDNPATVFFSVFMALWAATFMEHWKRKQMRLNYRWDLTGFEEEEEAVKDHPRAEYEARVLEKSLKKESRNKEKRRHIPEESTNKWKQRVKTAMAGVKLTDKVKLTWRDRFPAYLTNLVSIIFMIAVTFAIVLGVIIYRISMAAALAMNSSPSVRSNIRVTVTATAVIINLVVIILLDEVYGCIARWLTKIEVPKTEKSFEERLIFKAFLLKFVNSYTPIFYVAFFKGRFVGRPGDYVYIFRSFRMEECAPGGCLMELCIQLSIIMLGKQLIQNNLFEIGIPKMKKLIRYLKLKQQSPPDHEECVKRKQRYEVDYNLEPFAGLTPEYMEMIIQFGFVTLFVASFPLAPLFALLNNIIEIRLDAKKFVTELRRPVAVRAKDIGIWYNILRGIGKLAVIINAFVISFTSDFIPRLVYLYMYSKNGTMHGFVNHTLSSFNVSDFQNGTAPNDPLDLGYEVQICRYKDYREPPWSENKYDISKDFWAVLAARLAFVIVFQNLVMFMSDFVDWVIPDIPKDISQQIHKEKVLMVELFMREEQDKQQLLETWMEKERQKDEPPCNHHNTKACPDSLGSPAPSHAYHGGVL
For B1, the binding was “no binding”.
